Values of other authors in patent US12337033B2, “Encapsulated glycolipid antigens for treatment of neoplastic diseases” (EnGeneIC Molecular Delivery Pty Ltd, priority 2019, dated 2025).
At least one structure is not confirmed: it was looked up by name or label, or the drawing left a doubt.

Conditions: cited from earlier work

For `COc1cccc2c1C(=O)c1c(O)c3c(c(O)c1C2=O)C[C@@](O)(C(=O)CO)C[C@@H]3OC1CC2C(OC3C(OC)OCCN23)C(C)O1` (stereo partly drawn) [PNU159682, 3′-deamino-3″,4′-anhydro-[2″(S)-methoxy-3″(R)-oxy-4″-morpholinyl] doxorubicin], the “toxicity compared with doxorubicin” value is given as “over 2,000 times”.
